This passage reports binding results from PMC7814016.

These are yes or no findings as the source states them, for the method shown. In cells and extracts the contact can be indirect. Some binding calls cover weakened binding; strength is not graded here. For some assays here: Sequences can lack the tags named with a protein.

One assay deals with T1, FLAG-tagged CD146 (UniProt P43121).
T1 sequence: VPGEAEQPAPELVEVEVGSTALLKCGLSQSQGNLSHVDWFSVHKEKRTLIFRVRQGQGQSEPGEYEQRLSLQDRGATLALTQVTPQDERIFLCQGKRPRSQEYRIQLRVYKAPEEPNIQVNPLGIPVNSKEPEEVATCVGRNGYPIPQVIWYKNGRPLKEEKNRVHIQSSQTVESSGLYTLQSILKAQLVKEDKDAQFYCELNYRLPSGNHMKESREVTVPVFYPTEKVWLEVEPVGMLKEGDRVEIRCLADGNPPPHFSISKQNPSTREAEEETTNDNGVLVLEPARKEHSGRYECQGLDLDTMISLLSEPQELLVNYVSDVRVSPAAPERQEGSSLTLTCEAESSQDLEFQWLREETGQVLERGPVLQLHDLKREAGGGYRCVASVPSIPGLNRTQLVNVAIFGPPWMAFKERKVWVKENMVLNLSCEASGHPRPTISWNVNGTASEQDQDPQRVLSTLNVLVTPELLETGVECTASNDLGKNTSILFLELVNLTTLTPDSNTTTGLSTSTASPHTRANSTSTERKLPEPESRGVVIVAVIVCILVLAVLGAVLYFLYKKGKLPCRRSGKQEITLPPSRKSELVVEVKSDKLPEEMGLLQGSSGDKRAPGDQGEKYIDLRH
The assay can be described thus: co-IP; HK-2 cells co-transfected with V5-Wnt5a and FLAG-CD146 plasmids (1 μg or 2 μg each) for 48 h; lysed in RIPA buffer; IP with anti-V5 or anti-FLAG antibody overnight at 4 °C; blots with anti-FLAG and anti-V5.

The target in assay [1] is T2, CD146 (endogenous) (human (endogenous in HK-2)) (UniProt P43121).
T2 sequence: T1 sequence
The assay can be described thus: co-IP; endogenous proteins of HK-2 cells; normal glucose, or high glucose (HG) for 24 h with or without pretreatment with Box5 (100 μM/L); lysed in RIPA buffer; IP with anti-wnt5a or anti-CD146, blots with anti-CD146 or anti-wnt5a.

B1: V5-tagged Wnt5a (ligand, UniProt P41221 62-380)
chain: IIGAQPLCSQLAGLSQGQKKLCHLYQDHMQYIGEGAKTGIKECQYQFRHRRWNCSTVDNTSVFGRVMQIGSRETAFTYAVSAAGVVNAMSRACREGELSTCGCSRAARPKDLPRDWLWGGCGDNIDYGYRFAKEFVDARERERIHAKGSYESARILMNLHNNEAGRRTVYNLADVACKCHGVSGSCSLKTCWLQLADFRKVGDALKEKYDSAAAMRLNSRGKLVQVNSRFNSPTTQDLVYIDPSPDYCVRNESTGSLGTQGRLCNKTSEGMDGCELMCCGRGYDQFKTVQTERCHCKFHWCCYVKCKKCTEIVDQFVCK
Turning to B1, in the assay with FLAG-tagged CD146, the binding result is “binds”.

B2: Wnt5a (endogenous) (ligand, UniProt P41221 62-380)
chain: B1 chain
Turning to B2, in assay [1], the binding entry was “binds”.
